{"source": "patent US20050008573A1", "about": "(priority 2001, published 2005)", "key": {"[1]": {"assay": "general procedure: Fmoc solid-phase peptide synthesis; Rink-amide MBHA; PyBop/HOBt/DIPEA", "conditions": "whole synthesis, scale 54 μmol"}, "[2]": {"assay": "general procedure: Fmoc solid-phase peptide synthesis; Rink amide MBHA resin (0.54 mmol/g); PyBop/HOBt/DIPEA", "conditions": "whole synthesis, Analytical RP-HPLC, Phenomenex C18, scale of the general procedure 54 μmol"}}}
{"substance": "(Lys(DTPA-GLU)-βAla)4-Lys(DTPA-GLU)-Gly-CCK8", "values": [{"measurement": "isolated yield", "setting": "[1]", "value": 40, "unit": "%"}, {"measurement": "final HPLC purity", "setting": "[2]", "value": 95, "unit": "%"}]}
